Here are results for 65 compounds from PubChem BioAssay AID493014 (National Center for Advancing Translational Sciences (NCATS), 2011).

The test is described as follows: qHTS Assay to Find Inhibitors of Chronic Active B-Cell Receptor Signaling. The following applies: ABC-DLBCL IkBa-CBG/CBR reporter, luminescence ratio (green luciferase fused to IkBa over red control in TMD8 lymphoma cells), 4 h. The gist of the method:
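TMD8 ABC-DLBCL cells carrying doxycycline-inducible green luciferase fused to IkappaBalpha plus unfused red luciferase were exposed to compounds (up to 46 uM) for 4 hrs at 37C. Activity came from the overlap-corrected green/red luminescence ratio.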

Setting [1] is: measured here: CBR red luminescence, cell number.
[2] abbreviates: measured here: IkBa-CBG green luminescence.

The list shows a part of the results. Shown are side measurements of this screen, not its main read-out; they come without a call. Compounds called inactive in the main read-out are mostly missing here. Potencies come from curve fits of mixed quality, noted in brackets.

As for `Cc1ccc(C2=NN(C3=NN=C(N)Cc4ncnn43)C(O)(C(F)(F)F)C2)cc1` (stereo not drawn), under setting [1], the AC50 is 17.8 µM [rising, partial curve, poor fit].

On to `CCc1nnc(NC(=O)CCn2cnc3ccccc3c2=O)s1`, for which the AC50 under setting [1] is 35.5 µM [falling, single point].

Take `CCOC(=O)CC1=C(C(=O)OCC)C(c2cccnc2)C(C#N)=C(N)O1` (stereo not drawn): the AC50 under setting [1] was 14.6 µM [falling, single point].

For the compound `C[C@@]12CCC=C[C@H]1[C@H](c1ccc3ccccc3c1Br)N(Cc1ccccc1)C2=O`, the AC50 under setting [1] is 35.5 µM [falling, single point].

As to `CCCC(=O)Oc1ccccc1C1SCc2cc(C)c(C)cc2CS1`, under setting [1], the AC50 was 6.31 µM [falling, single point].

Turning to `COc1ccc(C[C@H]2c3cc(O)c(OC)cc3CC[N+]2(C)[O-])cc1O` (stereo partly drawn), the AC50 under setting [1] is 3.55 µM [rising, partial curve, poor fit].

In the case of `O=C(c1ccc(S(=O)(=O)N2CCOCC2)cc1)N1CCN(c2ccccn2)CC1`, under setting [1], the AC50 is 22.4 µM [falling, single point].

For `NC(=S)N=Nc1c(O)n(Cc2ccc(Br)cc2)c2ccccc12`, the AC50 under setting [2] was 3.26 µM [falling, full curve].

`CCSc1nc(=S)n(-c2ccccc2)c(C)c1C(C)=O`: under setting [1], the AC50 was 20.6 µM [falling, single point].

With `Cc1ccsc1C(=O)Nc1nccs1`, the AC50 under setting [1] is 5.01 µM [falling, partial curve, poor fit].

Take `O=C(NCCC1CCCCN1S(=O)(=O)c1ccc(Cl)cc1)C(=O)NCc1ccncc1` (stereo not drawn): the AC50 under setting [2] was 6.51 µM [rising, partial curve, poor fit].

As to `CCOc1ccc(CCNC(=O)Cc2ccc(NC3=NC4CS(=O)(=O)CC4S3)cc2)cc1` (stereo not drawn), the AC50 under setting [1] was 14.1 µM [rising, single point].

For `C/C(=N\Nc1ccc(F)cc1F)c1ccc(Br)s1`, under setting [1], the AC50 is 10 µM [rising, partial curve].

For `CCCCCc1c(O)nc(SCCN(CC)CC)[nH]c1=O`, the AC50 under setting [1] was 22.4 µM [falling, single point].

Consider `COc1ccc(C2C=C(C)Nc3nc4ccccc4n32)cc1` (stereo not drawn), for which, under setting [1], the AC50 was 35.5 µM [falling, single point].

For the compound `O=C1C=C(c2cccc(Cl)c2O)C[C@@H](c2ccc(F)cc2)C1`, the AC50 is 29.1 µM [falling, single point] under setting [1] and 23.1 µM [rising, partial curve, poor fit] under setting [2].

Consider `CC(C)CCn1nc(C(=O)OC(C)C(=O)NC(N)=O)c2ccccc2c1=O` (stereo not drawn), for which the AC50 under setting [1] was 0.562 µM [rising, full curve, poor fit].

In the case of `Cc1cc(NC(=O)c2cccs2)ncc1NC(=O)c1cccc(F)c1`, the AC50 under setting [1] was 20 µM [falling, single point].

For `CCOC(=O)c1cnc2c(Cl)c(Cl)ccc2c1NCCN1CCOCC1`, the AC50 under setting [1] was 0.0891 µM [rising, full curve, poor fit].

Take `N#CCC(=O)Nc1ccc(C(=O)OCC(=O)N(Cc2ccccc2)C2CCS(=O)(=O)C2)cc1` (stereo not drawn): the AC50 under setting [1] is 35.5 µM [falling, single point].

Take `Cc1ccc(NC(=O)C2CC(=O)NC(N3CCc4ccccc43)=N2)cc1` (stereo not drawn): the AC50 under setting [1] is 5.17 µM [rising, single point].

In the case of `CCOC(=O)c1c(C)nc2ccccc2c1C`, under setting [2], the AC50 is 16.4 µM [falling, partial curve, poor fit].

For `Cc1cc(Nc2ccccc2)n(-c2ccccc2)n1`, the AC50 under setting [1] was 0.00461 µM [rising, full curve, poor fit].

Regarding `COC(=O)c1cc(OC)c(OC)cc1NC(=O)Nc1cccc(C(C)=O)c1`, the AC50 under setting [1] was 35.5 µM [rising, single point].

Turning to `CCOC(=O)C1(Cc2ccc(Cl)cc2)CCN(Cc2ccon2)CC1`, the AC50 under setting [1] is 1.58 µM [rising, partial curve, poor fit].

As for `CSc1nc(N2CCOCC2)c2sccc2n1`, the AC50 under setting [1] was 31.6 µM [falling, single point].

For the compound `C[C@H](NC(=O)c1[nH]cnc1C(=O)N[C@H](C)c1ccccc1)c1ccccc1`, under setting [1], the AC50 was 13 µM [falling, partial curve, poor fit].

Turning to `COc1ccc(NC(=O)c2ccccc2NC(=O)c2ccco2)c(OC)c1`, under setting [1], the AC50 is 3.55 µM [falling, partial curve].

In the case of `COc1cc(OC)cc(C(=O)Nc2ccc(N3CCN(C(=O)c4cccs4)CC3)cc2)c1`, the AC50 under setting [1] was 12.6 µM [falling, partial curve, poor fit].

In the case of `CCn1ccc2cc(OC)ccc2c1=S`, the AC50 under setting [1] was 1.58 µM [rising, full curve] and the AC50 under setting [2] is 12.6 µM [falling, partial curve, poor fit].

As to `O=C(c1noc2c1CCc1ccccc1-2)N1CCc2ccccc2C1`, the AC50 under setting [1] was 29.1 µM [falling, single point].

With `COc1ccc(NC(=O)CCN2C(=O)NC3(CCCC3)C2=O)cc1Cl`, under setting [1], the AC50 was 25.9 µM [rising, single point].

`Cc1ccc2c(n1)sc1c(N)ncnc12`: under setting [1], the AC50 is 3.16 µM [falling, full curve].

As for `CCOc1cc(CNc2ccc3[nH]c(=O)[nH]c3c2)ccc1OCC(=O)NC(C)(C)C`, the AC50 under setting [1] was 29.1 µM [rising, partial curve, poor fit].

For the compound `CCOc1cc2[nH]c(=S)n(CCc3ccc(OC)c(OC)c3)c(=O)c2cc1OCC`, under setting [1], the AC50 was 29.1 µM [rising, single point].

As for `O=C(COC(=O)c1ccccn1)c1ccc([N+](=O)[O-])cc1`, the AC50 under setting [1] is 3.98 µM [falling, partial curve].

Consider `COc1ccc(C2=Nc3ccccc3OC2)cc1`, for which the AC50 under setting [1] is 11.6 µM [falling, single point].

Regarding `O=C(Nc1ccccc1C(=O)N1CCCCCC1)c1cccc([N+](=O)[O-])c1`, under setting [1], the AC50 was 11.2 µM [falling, partial curve, poor fit].

For the compound `Cc1nn(-c2ccccc2)c(C)c1-c1ccccc1O`, under setting [1], the AC50 is 8.91 µM [rising, partial curve].

Consider `COc1cc(-c2ccc(NC(=O)NC3CC3)c(OC)c2)ccc1NC(=O)NC1CC1`, for which the AC50 is 25.1 µM [falling, partial curve, poor fit] under setting [1] and 15.8 µM [rising, partial curve, poor fit] under setting [2].

Consider `Cc1ccc(S(=O)(=O)N2CCN(C(=O)C3CC(=O)N(c4ccc5c(c4)OCCO5)C3)CC2)cc1` (stereo not drawn), for which the AC50 under setting [1] was 0.731 µM [rising, full curve, poor fit].

On to `CC(=O)c1ccccc1OCC(O)CN1CCN(CCN2C(=O)c3cccc4cccc(c34)C2=O)CC1` (stereo not drawn), for which the AC50 under setting [1] is 25.1 µM [falling, single point].

`Cc1c(CCC(=O)O)c(=O)oc2cc3occ(-c4ccc(F)cc4)c3cc12`: under setting [1], the AC50 is 9.2 µM [rising, partial curve, poor fit].

Regarding `Cc1nnc(SCc2ccc(C(=O)Nc3cc(Cl)ccc3C)cc2)s1`, the AC50 under setting [1] is 14.6 µM [falling, partial curve, poor fit].

In the case of `CCOC(=O)N1CCN(C(=O)COc2cccc3c2CCN(Cc2cccc(C)c2)C3=O)CC1`, under setting [1], the AC50 is 18.4 µM [falling, partial curve].

Take `COc1ccc2c(=O)c(-c3ccc(OC)c(OC)c3)coc2c1`: the AC50 under setting [1] is 35.5 µM [falling, single point].

For the compound `NC(=O)c1cc(C(=O)Cc2ccccc2)c[nH]1`, the AC50 under setting [1] is 0.398 µM [rising, full curve, poor fit].

As to `O=C(Cc1ccc(Cl)cc1)Nc1ncccn1`, the AC50 under setting [1] was 3.16 µM [rising, partial curve].

On to `CCC1Cc2c(nc(N)c3c(N)nc(N4CCOCC4)c(C#N)c23)O1` (stereo not drawn), for which the AC50 under setting [1] was 35.5 µM [falling, partial curve, poor fit].

On to `C=CCNc1ncnc2c1cnn2-c1cccc(C)c1`, for which the AC50 under setting [1] is 9.2 µM [falling, partial curve].

Turning to `CCOc1ccc(C(=O)CCN2CCOCC2)cc1`, the AC50 under setting [1] was 35.5 µM [falling, single point].

For the compound `O=C(/C=C/c1ccc(Br)cc1)NC(=O)c1ccccc1O`, under setting [1], the half-maximal activity concentration (AC50) is 3.16 µM [falling, full curve].

Consider `CCCCCCn1c(SCCN2CCOCC2)nc2c1c(=O)[nH]c(=O)n2C`, for which the AC50 under setting [1] was 15.8 µM [rising, partial curve].

Turning to `COc1cc(-c2nc3ccccn3c2/N=C/c2cccc(OC)c2O)ccc1O`, the AC50 under setting [1] is 3.16 µM [falling, full curve, poor fit].

As to `O=C(Nc1ccc(N2CCCC2)cc1)c1ccccc1[N+](=O)[O-]`, the AC50 under setting [1] was 8.91 µM [falling, partial curve].

Regarding `CC(CC(=O)O)CC(=O)Nc1cc(C(F)(F)F)cc(C(F)(F)F)c1` (stereo not drawn), under setting [1], the AC50 was 1.12 µM [rising, full curve, poor fit].

Turning to `N/C(=N\OC(=O)c1ccco1)c1ccccn1`, the AC50 under setting [1] is 25.1 µM [falling, single point].

For `CCOC(=O)Cc1nc2cc(Cl)ccc2o1`, under setting [1], the AC50 was 10 µM [rising, partial curve].

For `Cc1cc(COc2ccccc2)oc1C(=O)O`, the AC50 under setting [1] is 1.58 µM [falling, full curve, poor fit].

Turning to `O=C(c1cccc(OC(F)F)c1)N1CCN(c2ncccn2)CC1`, the AC50 under setting [1] was 35.5 µM [rising, single point].

`CCOC(=O)N1CC=C2C(C#N)=C(N)C(C#N)(C#N)[C@H](c3ccc(OCC)c(OCC)c3)[C@H]2C1`: under setting [1], the AC50 was 29.1 µM [falling, single point].

`Cn1ccs/c1=N\C(=O)Nc1ccccc1`: under setting [1], the AC50 was 17.8 µM [falling, partial curve].

For the compound `O=C(NC1=NN(c2ccccc2)CC1)Nc1ccccc1F`, under setting [1], the AC50 is 14.1 µM [falling, partial curve].

On to `C/C(=N\NC(=O)c1cc(O)ccc1O)c1cccc(NC(=O)c2ccc(Cl)cc2)c1`, for which the AC50 under setting [1] was 22.4 µM [falling, single point].

As for `COCCCN1C(=O)C(=O)/C(=C(/O)c2ccccc2)C1c1ccc2c(c1)OCO2` (stereo not drawn), the AC50 under setting [1] was 12.6 µM [rising, partial curve, poor fit].
